Measurements as given in publication PMC11334840.
No constants are given. Whether binding was seen depends on the method and setting. Binding seen in cells or lysates may run through a third protein. A yes stands for co-enrichment or nearness to the bait. Other partners may have been found. For part of these data: A no says only that the protein was not detected with the bait.

Amino acid sequences for entries named in this document (tags omitted).
UniProt Q96N67: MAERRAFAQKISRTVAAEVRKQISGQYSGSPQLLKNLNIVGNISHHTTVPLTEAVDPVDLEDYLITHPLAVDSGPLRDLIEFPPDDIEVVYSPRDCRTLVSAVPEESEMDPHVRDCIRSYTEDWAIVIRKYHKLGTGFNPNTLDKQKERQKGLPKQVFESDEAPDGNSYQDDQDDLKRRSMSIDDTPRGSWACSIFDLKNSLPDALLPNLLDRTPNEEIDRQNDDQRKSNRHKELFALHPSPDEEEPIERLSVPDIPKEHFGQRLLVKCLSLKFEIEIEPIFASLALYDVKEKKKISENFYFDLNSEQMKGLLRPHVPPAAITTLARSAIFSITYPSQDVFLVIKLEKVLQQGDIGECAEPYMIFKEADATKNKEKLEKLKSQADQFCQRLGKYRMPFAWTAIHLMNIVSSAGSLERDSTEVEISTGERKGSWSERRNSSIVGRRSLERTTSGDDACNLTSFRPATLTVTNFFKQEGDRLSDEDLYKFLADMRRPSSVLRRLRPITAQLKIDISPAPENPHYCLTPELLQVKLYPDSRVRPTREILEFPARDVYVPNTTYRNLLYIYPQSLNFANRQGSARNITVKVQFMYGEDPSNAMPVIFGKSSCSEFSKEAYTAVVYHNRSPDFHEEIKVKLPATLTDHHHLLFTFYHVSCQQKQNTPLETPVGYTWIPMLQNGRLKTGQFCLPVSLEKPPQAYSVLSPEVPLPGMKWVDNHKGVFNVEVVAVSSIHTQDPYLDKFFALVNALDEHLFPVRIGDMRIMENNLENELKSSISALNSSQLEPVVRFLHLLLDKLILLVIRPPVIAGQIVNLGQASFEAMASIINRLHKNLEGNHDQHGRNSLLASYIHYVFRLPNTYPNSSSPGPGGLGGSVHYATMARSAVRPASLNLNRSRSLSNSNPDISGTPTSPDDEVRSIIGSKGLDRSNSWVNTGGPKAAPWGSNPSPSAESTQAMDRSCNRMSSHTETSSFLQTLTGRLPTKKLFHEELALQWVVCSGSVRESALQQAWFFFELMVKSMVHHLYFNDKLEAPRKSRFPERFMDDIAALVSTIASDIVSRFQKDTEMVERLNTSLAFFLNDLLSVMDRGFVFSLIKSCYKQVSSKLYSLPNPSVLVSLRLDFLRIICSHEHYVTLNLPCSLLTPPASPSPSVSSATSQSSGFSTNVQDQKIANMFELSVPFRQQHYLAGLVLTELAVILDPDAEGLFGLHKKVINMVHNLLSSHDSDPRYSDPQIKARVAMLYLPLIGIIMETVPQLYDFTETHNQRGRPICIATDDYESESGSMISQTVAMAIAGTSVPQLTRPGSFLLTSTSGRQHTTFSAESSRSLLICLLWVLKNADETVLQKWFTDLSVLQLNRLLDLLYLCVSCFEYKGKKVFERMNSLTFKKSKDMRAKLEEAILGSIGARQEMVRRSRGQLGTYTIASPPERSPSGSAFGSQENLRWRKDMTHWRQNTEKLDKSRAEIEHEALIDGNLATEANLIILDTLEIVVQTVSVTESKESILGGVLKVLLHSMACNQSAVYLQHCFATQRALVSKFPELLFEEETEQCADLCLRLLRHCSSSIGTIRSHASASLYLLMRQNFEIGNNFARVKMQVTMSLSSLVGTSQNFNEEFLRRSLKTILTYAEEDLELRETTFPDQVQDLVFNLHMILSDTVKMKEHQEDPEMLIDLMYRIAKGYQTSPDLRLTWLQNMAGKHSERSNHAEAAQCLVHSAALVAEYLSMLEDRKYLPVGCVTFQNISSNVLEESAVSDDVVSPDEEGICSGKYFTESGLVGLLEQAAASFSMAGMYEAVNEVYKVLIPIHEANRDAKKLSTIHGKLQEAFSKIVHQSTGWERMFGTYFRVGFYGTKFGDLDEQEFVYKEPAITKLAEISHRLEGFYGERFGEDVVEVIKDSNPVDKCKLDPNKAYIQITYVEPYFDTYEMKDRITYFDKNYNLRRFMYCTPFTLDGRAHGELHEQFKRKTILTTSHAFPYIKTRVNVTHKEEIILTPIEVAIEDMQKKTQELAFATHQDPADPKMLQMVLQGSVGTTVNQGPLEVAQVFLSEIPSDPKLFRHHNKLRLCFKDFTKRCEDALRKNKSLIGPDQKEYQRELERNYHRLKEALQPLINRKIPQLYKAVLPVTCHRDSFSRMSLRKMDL
UniProt P07947: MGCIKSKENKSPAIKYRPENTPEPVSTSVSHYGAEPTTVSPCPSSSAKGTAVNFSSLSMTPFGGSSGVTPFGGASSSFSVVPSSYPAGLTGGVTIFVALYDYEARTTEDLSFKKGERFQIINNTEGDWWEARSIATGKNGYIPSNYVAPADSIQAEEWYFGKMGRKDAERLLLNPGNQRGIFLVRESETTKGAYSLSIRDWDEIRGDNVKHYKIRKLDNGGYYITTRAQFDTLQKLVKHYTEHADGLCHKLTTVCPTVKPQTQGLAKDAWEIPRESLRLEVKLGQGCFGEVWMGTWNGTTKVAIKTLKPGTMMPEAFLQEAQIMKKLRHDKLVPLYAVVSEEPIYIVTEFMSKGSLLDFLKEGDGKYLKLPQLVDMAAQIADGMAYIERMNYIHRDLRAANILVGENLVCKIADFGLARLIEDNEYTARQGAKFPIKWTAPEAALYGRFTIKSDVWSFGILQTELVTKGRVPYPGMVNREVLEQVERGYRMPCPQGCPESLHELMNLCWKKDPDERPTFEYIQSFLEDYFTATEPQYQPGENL
UniProt P62993: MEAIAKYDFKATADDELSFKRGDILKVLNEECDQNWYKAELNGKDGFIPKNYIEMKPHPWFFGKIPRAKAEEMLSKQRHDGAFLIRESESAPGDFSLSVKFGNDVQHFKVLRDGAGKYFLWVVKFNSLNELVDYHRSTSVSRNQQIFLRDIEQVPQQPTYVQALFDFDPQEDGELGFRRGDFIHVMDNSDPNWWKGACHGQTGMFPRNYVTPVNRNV
UniProt Q9UH65: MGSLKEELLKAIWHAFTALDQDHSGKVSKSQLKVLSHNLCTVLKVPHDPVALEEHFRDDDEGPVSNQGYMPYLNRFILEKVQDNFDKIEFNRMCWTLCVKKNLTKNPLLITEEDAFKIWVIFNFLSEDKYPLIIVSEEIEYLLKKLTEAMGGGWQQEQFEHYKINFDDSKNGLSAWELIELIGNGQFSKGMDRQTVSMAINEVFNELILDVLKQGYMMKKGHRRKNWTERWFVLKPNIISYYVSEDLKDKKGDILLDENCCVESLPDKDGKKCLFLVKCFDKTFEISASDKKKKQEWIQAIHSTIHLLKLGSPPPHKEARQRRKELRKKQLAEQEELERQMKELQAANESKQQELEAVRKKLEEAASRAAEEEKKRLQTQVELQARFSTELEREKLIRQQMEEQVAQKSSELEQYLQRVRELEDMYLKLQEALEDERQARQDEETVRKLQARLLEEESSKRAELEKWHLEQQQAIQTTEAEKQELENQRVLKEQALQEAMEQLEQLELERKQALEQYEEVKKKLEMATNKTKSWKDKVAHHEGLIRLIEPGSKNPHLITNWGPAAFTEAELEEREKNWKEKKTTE

Key:
Assay in all cases: affinity purification with mass spectrometry; biotinylated bait peptide (50 μg) on streptavidin agarose beads; 1 mg pre-cleared lysate of H520, OE19, SKBR3, U251 or HEK293T (stably FGFR2) cells in RIPA buffer, overnight at 4 °C; LC-MS; scored against scrambled control peptides (proline to leucine) with SAINTexpress and Perseus; only the target purified
[1] = target: T1, FGFR2 PRM-containing C-terminal tail bait peptide (residues 806-821, wild-type PRM) (human)
T1 sequence (peptide, N-terminal biotin, joined through two polyethylene glycol (PEG) spacers): EPSLPQFPHINGSVKT

[2] = target: T2, EGFR PRM-containing C-terminal tail bait peptide (residues 1105-1124, wild-type PRM) (human)
T2 sequence (peptide, N-terminal biotin, joined through two polyethylene glycol (PEG) spacers): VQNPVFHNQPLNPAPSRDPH

[3] = target: T3, HER2 PRM-containing C-terminal tail bait peptide (residues 1144-1161, wild-type PRM) (human)
T3 sequence (peptide, N-terminal biotin, joined through two polyethylene glycol (PEG) spacers): DVRPQPPSPREGPLPAAR

**Q.** “Dedicator of cytokinesis protein 7 (from UniProt Q96N67 1-2140)” was tested. Which binding [1] did it give?
**A.** no binding

**Q.** What about the binding [2] of the same molecule?
**A.** no binding

**Q.** What about the binding [3] of the same molecule?
**A.** binds

**Q.** Which results are given for “Spectrin alpha chain, non-erythrocytic 1 (from UniProt Q13813 1-2472)”?
**A.** binding [1]: binds; binding [2]: binds

**Q.** Which binding [2] does the source give for “Src family tyrosine kinase YES (from UniProt P07947 1-543)” here?
**A.** binds

**Q.** With “growth factor receptor bound protein 2 (from UniProt P62993 1-217)” as the molecule, how does the binding [1] read?
**A.** no binding

**Q.** “switch associated protein 70 (from UniProt Q9UH65 1-585)” was tested. Which binding [2] did it give?
**A.** binds

B1: Treacle protein (protein, UniProt Q13428 1-1488)
chain: MAEARKRRELLPLIYHHLLRAGYVRAAREVKEQSGQKCFLAQPVTLLDIYTHWQQTSELGRKRKAEEDAALQAKKTRVSDPISTSESSEEEEEAEAETAKATPRLASTNSSVLGADLPSSMKEKAKAETEKAGKTGNSMPHPATGKTVANLLSGKSPRKSAEPSANTTLVSETEEEGSVPAFGAAAKPGMVSAGQADSSSEDTSSSSDETDVEGKPSVKPAQVKASSVSTKESPARKAAPAPGKVGDVTPQVKGGALPPAKRAKKPEEESESSEEGSESEEEAPAGTRSQVKASEKILQVRAASAPAKGTPGKGATPAPPGKAGAVASQTKAGKPEEDSESSSEESSDSEEETPAAKALLQAKASGKTSQVGAASAPAKESPRKGAAPAPPGKTGPAVAKAQAGKREEDSQSSSEESDSEEEAPAQAKPSGKAPQVRAASAPAKESPRKGAAPAPPRKTGPAAAQVQVGKQEEDSRSSSEESDSDREALAAMNAAQVKPLGKSPQVKPASTMGMGPLGKGAGPVPPGKVGPATPSAQVGKWEEDSESSSEESSDSSDGEVPTAVAPAQEKSLGNILQAKPTSSPAKGPPQKAGPVAVQVKAEKPMDNSESSEESSDSADSEEAPAAMTAAQAKPALKIPQTKACPKKTNTTASAKVAPVRVGTQAPRKAGTATSPAGSSPAVAGGTQRPAEDSSSSEESDSEEEKTGLAVTVGQAKSVGKGLQVKAASVPVKGSLGQGTAPVLPGKTGPTVTQVKAEKQEDSESSEEESDSEEAAASPAQVKTSVKKTQAKANPAAARAPSAKGTISAPGKVVTAAAQAKQRSPSKVKPPVRNPQNSTVLARGPASVPSVGKAVATAAQAQTGPEEDSGSSEEESDSEEEAETLAQVKPSGKTHQIRAALAPAKESPRKGAAPTPPGKTGPSAAQAGKQDDSGSSSEESDSDGEAPAAVTSAQVIKPPLIFVDPNRSPAGPAATPAQAQAASTPRKARASESTARSSSSESEDEDVIPATQCLTPGIRTNVVTMPTAHPRIAPKASMAGASSSKESSRISDGKKQEGPATQVSKKNPASLPLTQAALKVLAQKASEAQPPVARTQPSSGVDSAVGTLPATSPQSTSVQAKGTNKLRKPKLPEVQQATKAPESSDDSEDSSDSSSGSEEDGEGPQGAKSAHTLGPTPSRTETLVEETAAESSEDDVVAPSQSLLSGYMTPGLTPANSQASKATPKLDSSPSVSSTLAAKDDPDGKQEAKPQQAAGMLSPKTGGKEAASGTTPQKSRKPKKGAGNPQASTLALQSNITQCLLGQPWPLNEAQVQASVVKVLTELLEQERKKVVDTTKESSRKGWESRKRKLSGDQPAARTPRSKKKKKLGAGEGGEASVSPEKTSTTSKGKAKRDKASGDVKEKKGKGSLGSQGAKDEPEEELQKGMGTVEGGDQSNPKSKKEKKKSDKRKKDKEKKEKKKKAKKASTKDSESPSQKKKKKKKKTAEQTV
**Q.** With B1 as the molecule, how does the binding [1] read?
**A.** no binding

**Q.** What about the binding [2] of the same molecule?
**A.** no binding

**Q.** And the binding [3]?
**A.** binds

B2: phospholipase Cγ1 (protein, UniProt P19174 1-1290)
chain: MAGAASPCANGCGPGAPSDAEVLHLCRSLEVGTVMTLFYSKKSQRPERKTFQVKLETRQITWSRGADKIEGAIDIREIKEIRPGKTSRDFDRYQEDPAFRPDQSHCFVILYGMEFRLKTLSLQATSEDEVNMWIKGLTWLMEDTLQAPTPLQIERWLRKQFYSVDRNREDRISAKDLKNMLSQVNYRVPNMRFLRERLTDLEQRSGDITYGQFAQLYRSLMYSAQKTMDLPFLEASTLRAGERPELCRVSLPEFQQFLLDYQGELWAVDRLQVQEFMLSFLRDPLREIEEPYFFLDEFVTFLFSKENSVWNSQLDAVCPDTMNNPLSHYWISSSHNTYLTGDQFSSESSLEAYARCLRMGCRCIELDCWDGPDGMPVIYHGHTLTTKIKFSDVLHTIKEHAFVASEYPVILSIEDHCSIAQQRNMAQYFKKVLGDTLLTKPVEISADGLPSPNQLKRKILIKHKKLAEGSAYEEVPTSMMYSENDISNSIKNGILYLEDPVNHEWYPHYFVLTSSKIYYSEETSSDQGNEDEEEPKEVSSSTELHSNEKWFHGKLGAGRDGRHIAERLLTEYCIETGAPDGSFLVRESETFVGDYTLSFWRNGKVQHCRIHSRQDAGTPKFFLTDNLVFDSLYDLITHYQQVPLRCNEFEMRLSEPVPQTNAHESKEWYHASLTRAQAEHMLMRVPRDGAFLVRKRNEPNSYAISFRAEGKIKHCRVQQEGQTVMLGNSEFDSLVDLISYYEKHPLYRKMKLRYPINEEALEKIGTAEPDYGALYEGRNPGFYVEANPMPTFKCAVKALFDYKAQREDELTFIKSAIIQNVEKQEGGWWRGDYGGKKQLWFPSNYVEEMVNPVALEPEREHLDENSPLGDLLRGVLDVPACQIAIRPEGKNNRLFVFSISMASVAHWSLDVAADSQEELQDWVKKIREVAQTADARLTEGKIMERRKKIALELSELVVYCRPVPFDEEKIGTERACYRDMSSFPETKAEKYVNKAKGKKFLQYNRLQLSRIYPKGQRLDSSNYDPLPMWICGSQLVALNFQTPDKPMQMNQALFMTGRHCGYVLQPSTMRDEAFDPFDKSSLRGLEPCAISIEVLGARHLPKNGRGIVCPFVEIEVAGAEYDSTKQKTEFVVDNGLNPVWPAKPFHFQISNPEFAFLRFVVYEEDMFSDQNFLAQATFPVKGLKTGYRAVPLKNNYSEDLELASLLIKIDIFPAKENGDLSPFSGTSLRERGSDASGQLFHGRAREGSFESRYQQPFEDFRISQEHLADHFDSRERRAPRRTRVNGDNRL
**Q.** With B2 as the molecule, how does the binding [1] read?
**A.** no binding
